Reference: doi:10.1101/701797 (bioRxiv, 2019)
Numbering of substitutions follows the chain as printed. Names may count otherwise. No constants are given. Whether binding was seen depends on the method and setting.

B1: L37A mutant of C41L-PLB (protein, UniProt P61012 1-52)
chain: MDKVQYLTRSAIRRASTIEMPQQARQNLQNLFINFCAILILLLLICIIVMLL
B2: I40A mutant of C41L-PLB (protein, UniProt P61012 1-52)
chain: B1 chain with A37L, I40A

Tests used:
[1] = target: L37A mutant of C41L-PLB (dog) (UniProt P61012); assay: SDS-PAGE oligomerization assay with immunoblot
[2] = target: I40A mutant of C41L-PLB (dog) (UniProt P61012); assay: SDS-PAGE oligomerization assay with immunoblot

Binder	binding [1]	binding [2]
B1	no binding	
B2		no binding
